From publication PMC10224958, “Cryo-EM structure of the Saccharomyces cerevisiae Rpd3L histone deacetylase complex” (Nature Communications, 2023)

T1: Rxt2 with a TAP tag at the C-terminus (S. cerevisiae) (UniProt P38255)
T1 sequence: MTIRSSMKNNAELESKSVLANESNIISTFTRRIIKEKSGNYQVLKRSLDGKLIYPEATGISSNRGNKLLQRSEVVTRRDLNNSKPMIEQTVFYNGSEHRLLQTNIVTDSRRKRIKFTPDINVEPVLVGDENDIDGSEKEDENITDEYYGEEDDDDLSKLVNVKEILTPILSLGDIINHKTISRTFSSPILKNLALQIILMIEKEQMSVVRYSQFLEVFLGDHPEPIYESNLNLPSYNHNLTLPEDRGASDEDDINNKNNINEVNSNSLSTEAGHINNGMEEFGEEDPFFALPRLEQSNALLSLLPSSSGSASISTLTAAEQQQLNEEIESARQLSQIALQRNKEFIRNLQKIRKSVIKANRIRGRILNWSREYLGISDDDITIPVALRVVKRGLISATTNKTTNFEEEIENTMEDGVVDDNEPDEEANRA


Biological target: T1, Rxt2 with a TAP tag at the C-terminus (S. cerevisiae)
Test: affinity purification with mass spectrometry; tandem affinity purification from S. cerevisiae lysate by the TAP tag on Rxt2 (IgG resin, TEV protease, calmodulin resin; washes with 500 to 750 mM KCl); the purified complex analysed by mass spectrometry

Row | Binder | binding
1 | Ume6 (protein, UniProt P39001 1-836) MLDKARSQSKHMDESNAAASLLSMETTANNHHYLHNKTSRATLMNSSQDGKKHAEDEVSDGANSRHPTISSASIESLKTTYDENPLLSIMKSTCAPNNTPVHTPSGSPSLKVQSGGDIKDDPKENDTTTTTNTTLQDRRDSDNAVHAAASPLAPSNTPSDPKSLCNGHVAQATDPQISGAIQPQYTATNEDVFPYSSTSTNSNTATTTIVAGAKKKIHLPPPQAPAVSSPGTTAAGSGAGTGSGIRSRTGSDLPLIITSANKNNGKTTNSPMSILSRNNSTNNNDNNSIQSSDSRESSNNNEIGGYLRGGTKRGGSPSNDSQVQHNVHDDQCAVGVAPRNFYFNKDREITDPNVKLDENESKINISFWLNSKYRDEAYSLNESSSNNASSNTDTPTNSRHANTSSSITSRNNFQHFRFNQIPSQPPTSASSFTSTNNNNPQRNNINRGEDPFATSSRPSTGFFYGDLPNRNNRNSPFHTNEQYIPPPPPKYINSKLDGLRSRLLLGPNSASSSTKLDDDLGTAAAVLSNMRSSPYRTHDKPISNVNDMNNTNALGVPASRPHSSSFPSKGVLRPILLRIHNSEQQPIFESNNSTAVFDEDQDQNQDLSPYHLNLNSKKVLDPTFESRTRQVTWNKNGKRIDRRLSAPEQQQQLEVPPLKKSRRSVGNARVASQTNSDYNSLGESSTSSAPSSPSLKASSGLAYTADYPNATSPDFAKSKGKNVKPKAKSKAKQSSKKRPNNTTSKSKANNSQESNNATSSTSQGTRSRTGCWICRLRKKKCTEERPHCFNCERLKLDCHYDAFKPDFVSDPKKKQMKLEEIKKKTKEAKRRAMKKK | binds
2 | Ash1 (protein, UniProt P34233 1-588) MSSLYIKTPLHALSAGPDSHANSSYYDNLLLPSFSNLSSNISRNNITTDNNINSASPRKYSFHSLNVSPILSPISLANEILGKKSNTAPASPHHMDYNPISSLTPGNSPEFNKASLSQISFTNPLNYGSGLGFSSNSQPRLPLLDRLSSVSLSKRPERPQQSLPSLRHLQLLPSPLLQENAARFPDTSKRTSNWKTDLTHWCKDTNYQDYVKIREEVAHFKPLSIPNLTNNQNNDSFNYGKELESTRSSKFHSPSKESFDRTKLIPSILEAKDQFKDLSNNAWSITPPVTPPMSPPTNRTMERTTLRGVEASFFEGKSSNNDSIFNPIISEKLVQEVKHQRQLRGNSFPMPNASHKKTNSFKALQIKKLLANRDILSNNSKSNVRKPSKNKISKQASNVFGNTARQLVMKLDNASYSSVSASSSPSPSTPTKSGKMRSRSSSPVRPKAYTPSPRSPNYHRFALDSPPQSPRRSSNSSITKKGSRRSSGSSPTRHTTRVCVSCHSSDSPCWRPSWSPRKQDQLCNSCGLRYKKTHTRCLNDLCRKIPTKGEINIMKSNGIDKEFVPERNCEIEGYRCLFCNYITETVEN | binds
3 | Ume1 (protein, UniProt Q03010 1-460) MSTLDIAEDNKIKNEEFKIWKKSIPSLYQHISSLKPIFGSGVDESPSTLRSIVFTNDSSCNKSKGVLSVPLLYSQGSEIFEVDCIVPLGLHYKKPESISEPLVQPDYTMESQKVEQTVLIPKWEFKGETIAKMIYVDNSEINVKVIALSTNGSLAWFREGVKSPVYTMMEPSTSLSSASSGNQNKPCVDFAISNDSKTLTVTKEKHLDNENATIKLIDNSGKIGEVLRTIPVPGIKNIQEIKFLNNQIFATCSDDGIIRFWGNEIGKKPLWILNDSLDGKTTCFAASPFVDTLFMTGTSGGALKVWDIRAVIALGDADAELNINQGHNKVNELFKVHHFYSEQVSKIEFSSISPMEVVTIGGLGNVYHWNFEPVFAIYNEIHEDFQGIISDELEAESMAFYHTEGCRREIGENNKVNTVAYHKYIEDLVATVDSDGLLTVYKPFTGKVLDGSREVGAAKS | binds
4 | Dep1 (natural protein, S. cerevisiae, UniProt P31385 1-405, looked up, Dep1, subunit of the S. cerevisiae Rpd3L complex; endogenous subunit) MSQQTPQESEQTTAKEQDLDQESVLSNIDFNTDLNHNLNLSEYCISSDAGTEKMDSDEEKSLANLPELKYAPKLSSLVKQETLTESLKRPHEDEKEAIDEAKKMKVPGENEDESKEEEKSQELEEAIDSKEKSTDARDEQGDEGDNEEENNEEDNENENEHTAPPALVMPSPIEMEEQRMTALKEITDIEYKFAQLRQKLYDNQLVRLQTELQMCLEGSHPELQVYYSKIAAIRDYKLHRAYQRQKYELSCINTETIATRTFIHQDFHKKVTDLRARLLNRTTQTWYDINKERRDMDIVIPDVNYHVPIKLDNKTLSCITGYASAAQLCYPGEPVAEDLACESIEYRYRANPVDKLEVIVDRMRLNNEISDLEGLRKYFHSFPGAPELNPLRDSEINDDFHQWAQ | binds
5 | Sds3 (natural protein, S. cerevisiae, UniProt P40505 1-327, looked up, Sds3, subunit of the S. cerevisiae Rpd3L complex; endogenous subunit) MAIQKVSNKDLSRKDKRRFNIESKVNKIYQNFYSERDNQYKDRLTALQTDLTSLHQGDNGQYARQVRDLEEERDLELVRLRLFEEYRVSRSGIEFQEDIEKAKAEHEKLIKLCKERLYSSIEQKIKKLQEERLLMDVANVHSYAMNYSRPQYQKNTRSHTVSGWDSSSNEYGRDTANESATDTGAGNDRRTLRRRNASKDTRGNNNNQDESDFQTGNGSGSNGHGSRQGSQFPHFNNLTYKSGMNSDSDFLQGINEGTDLYAFLFGEKNPKDNANGNEKKKNRGAQRYSTKTAPPLQSLKPDEVTEDISLIRELTGQPPAPFRLRSD | binds
6 | Sap30 (natural protein, S. cerevisiae, UniProt P38429 1-201, looked up, Sap30, subunit of the S. cerevisiae Rpd3L complex; endogenous subunit) MARPVNTNAETESRGRPTQGGGYASNNNGSCNNNNGSNNNNNNNNNNNNNSNNSNNNNGPTSSGRTNGKQRLTAAQQQYIKNLIETHITDNHPDLRPKSHPMDFEEYTDAFLRRYKDHFQLDVPDNLTLQGYLLGSKLGAKTYSYKRNTQGQHDKRIHKRDLANVVRRHFDEHSIKETDCIPQFIYKVKNQKKKFKMEFRG | binds
7 | Rxt3 (natural protein, S. cerevisiae, UniProt Q07458 1-294, looked up, Rxt3, subunit of the S. cerevisiae Rpd3L complex; endogenous subunit) MSVSEQDPNRAYRETQSQIYKLQETLLNSARTKNKQEEGQESNTHSFPEQYMHYQNGRNSAYDLPNVSSQSVLAFTEKHYPNKLKNLGTLYYNRFKEGSFDEDSTSYSDRHSFPYNLYDNTLPPPFLPAIGIQNINNIATLKITYEDIQASFNNIESPRKRNNEIWGCDIYSDDSDPILVLRHCGFKIGAPSGGSFHKLRRTPVNVTNQDNVTGNLPLLEGTPFDLEVELLFLPTLQKYPSVKRFDITSREWGSEATVIHDGLSYGIYSIVIKQRLDRDKPHEPNGYIKNLKWT | binds
8 | Cti6 (protein, UniProt Q08923 1-506) MESTAIVPKGPVVGSEDMEKAEVIASGSTDIISTTSTATTTAAIGSVQEESVKQEDVPMEGGEGEVEEEEGETRCICGELDTPDDSGFFIQCEQCSSWQHGYCVSITQDNAPDKYWCEQCRPELHQLFTTDTGEARSIYKPVQEKRRQSRRKARSAAASKSHAANEAEKSPRNTSNTDDNVDDIGDEEDEVEDEASAVALAKDGNTRSSRRRRRNSMDDASTDQYSLDPGDSDKKLLDRKRATFMAREEKQYQRMLEKALKESRRTSHQEDPESYENDADIYQGDTDNHNGTTRLQTDVMLTEGKPDSVTNDDMKESLRPSKEQSMEKTNDVEKEASQEKESSTGSAQDTEKTDEPILPLTSISSSEDDSRKASSRGSKRVSKPARKGNRTRRSNTSSDTNQNRRSADIGTDKPVKPRLPPQRTSLNEMRRRVSAILEFISRTQWELSEDQSDREEFVRFVENQHFVEKVDTIYNGYNESLSMMDDLTRELLLWEKKYSNNTNAIQ | binds

These are yes or no findings as the source states them, for the method shown. In cells and extracts the contact can be indirect. These calls come from enrichment with a bait or labelling near it, and not all partners need be listed. Where a sequence is shown, tags or fusion partners need not be part of it.
